The list shows only some results of the screen, not a fair sample: it gathers tests that were run many times, whatever their T/C, doses with no T/C, and many T/C values between a quarter and a half above the control. Other doses and runs of a compound stand elsewhere. T/C is the treated group as % of the vehicle group. Schedule codes are those of the source, taken here to give the interval after Q, in days (D) or hours (H), and the number of doses after X. Some T/C values are followed by the survivors on the day toxicity was checked, most often the fifth; where none is given, no animal had died by that day. Some doses have a count of surviving animals in place of a T/C: the source files T/C as zero there, which appears to mark a toxic dose or a test without result, not a measured value. Counts of survivors are from the toxicity check (mostly the fifth day) where no day follows; animals may have died later. Some doses were run more than once; the results are listed from low to high.
Test system: nude mice, A549 intrarenal xenograft, tumor weight change
Experiment: NCI In Vivo Anticancer Drug Screen. Data for tumor model A549 Human Adenocarcinoma of Lung with characteristics of Type II Alveolar Epithelial cells (intrarenal inoculation) in NU/NU BALB/C (nude) mice
Conditions: T/C endpoint: mean tumor weight change, higher T/C = larger tumour; for T/C: evaluated on day 12
Protocol: The antitumor activity of compounds was measured in mice bearing transplantable tumors. Survival or tumor size were measured and the results are expressed as the measurement made in the treated group (T) divided by the measurement made in the vehicle treated control group (C). The tumor model used in this assay is A549 Human Adenocarcinoma of Lung with characteristics of Type II Alveolar Epithelial cells (intrarenal inoculation) in NU/NU BALB/C (nude) mice

[1] = dose: 600.0 mg/kg/injection, schedule: Q04DX003 (ip), vehicle: Klucel (hydroxypropylcellulose) (HPC)
[2] = dose: 1200.0 mg/kg/injection, schedule: Q04DX003 (ip), vehicle: Klucel (hydroxypropylcellulose) (HPC)
[3] = dose: 50.0 mg/kg/injection, schedule: Q04DX003 (ip), vehicle: saline with Tween-80
[4] = dose: 300.0 mg/kg/injection, schedule: Q04DX003 (ip), vehicle: Klucel (hydroxypropylcellulose) (HPC)
[5] = dose: 600.0 mg/kg/injection, schedule: Q04DX003 (ip), vehicle: saline with Tween-80

With Cc1nc(C(Cl)(Cl)Cl)[nH]c(=O)c1SCCO the T/C (dose: 600.0 mg/kg/injection, schedule: Q04DX003 (ip), vehicle: distilled water + Tween-80 + alcohol) was 141 % of control [4 of 6 alive on day 12], the survivor count (dose: 1200.0 mg/kg/injection, schedule: Q04DX003 (ip), vehicle: distilled water + Tween-80 + alcohol) was 0 of 6 on day 12 and the survivor count (dose: 1200.0 mg/kg/injection, schedule: Q04DX003 (ip), vehicle: distilled water + alcohol) was 0 of 6 on day 12.
With O=C1CNC(=O)N1CN1CCOCC1 the survivor count [1] was 2 of 6 on day 12 and the survivor count [2] was 0 of 6 on day 12.
For NC(Cc1ccccc1)C(=O)OCN1C(=O)C2C3C=CC(C2C1=O)C1C2C(=O)N(COC(=O)C(N)Cc4ccccc4)C(=O)C2C31 (stereo unspecified), the survivor count (dose: 400.0 mg/kg/injection, schedule: Q04DX003 (ip), vehicle: other) was 0 of 6 on day 12.
For CC[C@@]1(O)C(=O)OCc2c1cc1n(c2=O)Cc2cc3c(N)cccc3nc2-1, the survivor count (dose: 4.0 mg/kg/injection, schedule: Q04DX003 (ip), vehicle: saline with Tween-80) was 1 of 6 on day 12, the survivor count (dose: 6.67 mg/kg/injection, schedule: Q04DX003 (ip), vehicle: saline with Tween-80) was 0 of 6 on day 12 and the survivor count (dose: 8.0 mg/kg/injection, schedule: Q04DX003 (ip), vehicle: saline with Tween-80) was 0 of 6 on day 12.
Nc1ccc2ccc(N)cc2c1 was tested, and the T/C [3] was 135 % of control.
CCOC1NC(=O)Oc2ccccc21 (stereo unspecified) was tested, and the survivor count [4] was 2 of 6 on day 12 and the survivor count [2] was 0 of 6 on day 12.
With [CH3][Sn]([CH3])([Cl])[c]1cc[c]([Sn]([CH3])([CH3])[Cl])cc1 the survivor count (dose: 10.0 mg/kg/injection, schedule: Q04DX003 (ip), vehicle: saline) was 0 of 6 on day 12.
For Oc1cccc2ccccc12, the T/C (dose: 150.0 mg/kg/injection, schedule: Q04DX003 (ip), vehicle: water) was 127 % of control and the survivor count (dose: 300.0 mg/kg/injection, schedule: Q04DX003 (ip), vehicle: water) was 1 of 6 on day 12.
For CCCCCCNc1nc(NCCCCCC)c2[nH]c(NCCCCCC)nc2n1, the survivor count (dose: 300.0 mg/kg/injection, schedule: Q04DX003 (ip), vehicle: saline with Tween-80) was 2 of 6 on day 12 and the survivor count [5] was 0 of 6 on day 12.
With COC(=O)C1(F)C(=O)NC(=O)NC1OC (stereo unspecified) the T/C (dose: 200.0 mg/kg/injection, schedule: Q04DX003 (ip), vehicle: Klucel (hydroxypropylcellulose) (HPC)) was 139 % of control.
With Cc1ccc(C(=O)Nc2ccc(S(=O)(=O)O)c3cc(S(=O)(=O)O)cc(S(=O)(=O)O)c23)cc1NC(=O)c1cccc(NC(=O)Nc2cccc(C(=O)Nc3cc(C(=O)Nc4ccc(S(=O)(=O)O)c5cc(S(=O)(=O)O)cc(S(=O)(=O)O)c45)ccc3C)c2)c1 the T/C (dose: 200.0 mg/kg/injection, schedule: Q04DX003 (ip), vehicle: saline) was 142 % of control.
With CC1C(c2ccccc2)OC(N2CCOCC2)C(C)(C)CN1C (stereo unspecified) the survivor count [5] was 0 of 6 on day 12 and the survivor count (dose: 1200.0 mg/kg/injection, schedule: Q04DX003 (ip), vehicle: saline with Tween-80) was 0 of 6 on day 12.
For CCC(NC(N)=O)C(CC)NC(N)=O (stereo unspecified), the survivor count [3] was 3 of 6 on day 12.
COc1cc2c(c(OC)c1O)-c1ccc(OC)c(=O)cc1[C@@H](NC(=O)C(F)(F)F)CC2 was tested, and the survivor count (dose: 33.33 mg/kg/injection, schedule: Q04DX003 (ip), vehicle: Klucel (hydroxypropylcellulose) (HPC)) was 1 of 5 on day 12 and the survivor count (dose: 40.0 mg/kg/injection, schedule: Q04DX003 (ip), vehicle: Klucel (hydroxypropylcellulose) (HPC)) was 2 of 6 on day 12.
NC(=S)N/N=C/c1ccc(O)cn1 was tested, and the survivor count (dose: 800.0 mg/kg/injection, schedule: Q04DX003 (ip), vehicle: saline with Tween-80) was 3 of 6 on day 12.
In the case of CC1=C[P+](c2ccccc2)(c2ccccc2)C=C(c2ccccc2)O1, the T/C (dose: 4.0 mg/kg/injection, schedule: Q04DX003 (ip), vehicle: suspension in saline) is reported as 128 % of control [5 of 6 alive on day 12].
For CCCCNc1ccc2nnc(C)n2n1, the survivor count (dose: 600.0 mg/kg/injection, schedule: Q04DX003 (ip), vehicle: DMSO) was 0 of 6 on day 12.
In the case of COc1cc2c(cc1OC)-c1c3c(cc4c1[C@@H](C2)N(C)CC4)OCO3, the survivor count (dose: 300.0 mg/kg/injection, schedule: Q04DX003 (ip), vehicle: distilled water + Tween-80 + alcohol) is reported as 0 of 6 on day 12.
c1ccc(OCC2CO2)c(OCC2CO2)c1 (stereo unspecified) was tested, and the survivor count [5] was 2 of 6 on day 12.
C/C=C/CC(C)C(O)C1C(=O)NC(CC)C(=O)N(C)CC(=O)N(C)C(CC(C)C)C(=O)NC(C(C)C)C(=O)N(C)C(CC(C)C)C(=O)NC(C)C(=O)NC(C)C(=O)N(C)C(CC(C)C)C(=O)N(C)C(CC(C)C)C(=O)N(C)C(C(C)C)C(=O)N1C (stereo unspecified) was tested, and the survivor count [4] was 3 of 6 on day 12 and the survivor count [1] was 2 of 5 on day 12.
CO[C@H](/C(C)=C/C=C/C(C)=C/c1coc(C)n1)[C@H](C)[C@H]1C[C@@H](O)[C@@]2(C)O[C@H]2/C=C/[C@@H](C)[C@@H]2C[C@@H](CC(=O)O2)C[C@H]2O[C@@H]2C(=O)O1 was tested, and the survivor count (dose: 0.2 mg/kg/injection, schedule: Q01DX009 (ip), vehicle: other) was 3 of 6 on day 12, the survivor count (dose: 0.3 mg/kg/injection, schedule: Q01DX009 (ip), vehicle: other) was 0 of 6 on day 12 and 2 of 6 on day 12 and the survivor count (dose: 0.44 mg/kg/injection, schedule: Q01DX009 (ip), vehicle: Klucel (hydroxypropylcellulose) (HPC)) was 0 of 10 on day 12. The survivor count (dose: 0.44 mg/kg/injection, schedule: Q01DX009 (ip), vehicle: other) was 0 of 3 on day 12 and 2 of 6 on day 12, the survivor count (dose: 0.5 mg/kg/injection, schedule: Q01DX009 (ip), vehicle: other) was 0 of 6 on day 12 and the survivor count (dose: 0.66 mg/kg/injection, schedule: Q01DX009 (ip), vehicle: Klucel (hydroxypropylcellulose) (HPC)) was 0 of 10 on day 12. The survivor count (dose: 0.83 mg/kg/injection, schedule: Q01DX009 (ip), vehicle: other) was 0 of 6 on day 12, the survivor count (dose: 1.0 mg/kg/injection, schedule: Q01DX009 (ip), vehicle: Klucel (hydroxypropylcellulose) (HPC)) was 0 of 10 on day 12 and the survivor count (dose: 13.0 mg/kg/injection, schedule: Q01DX009 (ip), vehicle: other) was 0 of 6 on day 12. The survivor count (dose: 13.0 mg/kg/injection, schedule: Q01DX009 (ip), vehicle: saline) was 0 of 6 on day 12, the survivor count (dose: 20.0 mg/kg/injection, schedule: Q01DX009 (ip), vehicle: other) was 0 of 6 on day 12 and the survivor count (dose: 20.0 mg/kg/injection, schedule: Q01DX009 (ip), vehicle: saline) was 0 of 6 on day 12. For the same compound, the survivor count (dose: 30.0 mg/kg/injection, schedule: Q01DX009 (ip), vehicle: other) was 0 of 6 on day 12, the survivor count (dose: 30.0 mg/kg/injection, schedule: Q01DX009 (ip), vehicle: saline) was 0 of 6 on day 12 and the survivor count (dose: 44.0 mg/kg/injection, schedule: Q01DX009 (ip), vehicle: other) was 0 of 6 on day 12. For the same compound, the survivor count (dose: 44.0 mg/kg/injection, schedule: Q01DX009 (ip), vehicle: saline) was 0 of 6 on day 12.
For c1cn[nH]c1, the T/C (dose: 150.0 mg/kg/injection, schedule: Q04DX003 (ip), vehicle: saline) was 136 % of control, the survivor count (dose: 270.0 mg/kg/injection, schedule: Q04DX003 (ip), vehicle: saline) was 3 of 6 on day 12 and the survivor count (dose: 360.0 mg/kg/injection, schedule: Q04DX003 (ip), vehicle: saline) was 0 of 6 on day 12. The survivor count (dose: 379.0 mg/kg/injection, schedule: Q04DX003 (ip), vehicle: saline) was 1 of 6 on day 12, the survivor count (dose: 506.0 mg/kg/injection, schedule: Q04DX003 (ip), vehicle: saline) was 1 of 6 on day 12 and the survivor count (dose: 600.0 mg/kg/injection, schedule: Q04DX003 (ip), vehicle: saline) was 2 of 6 on day 12. For the same compound, the survivor count (dose: 675.0 mg/kg/injection, schedule: Q04DX003 (ip), vehicle: saline) was 0 of 6 on day 12, the survivor count (dose: 900.0 mg/kg/injection, schedule: Q04DX003 (ip), vehicle: saline) was 0 of 6 on day 12 and the survivor count (dose: 1200.0 mg/kg/injection, schedule: Q04DX003 (ip), vehicle: saline) was 0 of 6 on day 12.

Source: PubChem BioAssay AID278 (DTP/NCI, 2004)
